Laboratory results taken from paper PMC6553684.
These are yes or no findings as the source states them, for the method shown. Binding seen in cells or lysates may run through a third protein. Some entries that bind do so weakly or less than the wild type. For some assays here: Sequences can lack the tags named with a protein.

The chains behind the UniProt entries cited, without tags or fusion partners.
UniProt Q9XYZ5: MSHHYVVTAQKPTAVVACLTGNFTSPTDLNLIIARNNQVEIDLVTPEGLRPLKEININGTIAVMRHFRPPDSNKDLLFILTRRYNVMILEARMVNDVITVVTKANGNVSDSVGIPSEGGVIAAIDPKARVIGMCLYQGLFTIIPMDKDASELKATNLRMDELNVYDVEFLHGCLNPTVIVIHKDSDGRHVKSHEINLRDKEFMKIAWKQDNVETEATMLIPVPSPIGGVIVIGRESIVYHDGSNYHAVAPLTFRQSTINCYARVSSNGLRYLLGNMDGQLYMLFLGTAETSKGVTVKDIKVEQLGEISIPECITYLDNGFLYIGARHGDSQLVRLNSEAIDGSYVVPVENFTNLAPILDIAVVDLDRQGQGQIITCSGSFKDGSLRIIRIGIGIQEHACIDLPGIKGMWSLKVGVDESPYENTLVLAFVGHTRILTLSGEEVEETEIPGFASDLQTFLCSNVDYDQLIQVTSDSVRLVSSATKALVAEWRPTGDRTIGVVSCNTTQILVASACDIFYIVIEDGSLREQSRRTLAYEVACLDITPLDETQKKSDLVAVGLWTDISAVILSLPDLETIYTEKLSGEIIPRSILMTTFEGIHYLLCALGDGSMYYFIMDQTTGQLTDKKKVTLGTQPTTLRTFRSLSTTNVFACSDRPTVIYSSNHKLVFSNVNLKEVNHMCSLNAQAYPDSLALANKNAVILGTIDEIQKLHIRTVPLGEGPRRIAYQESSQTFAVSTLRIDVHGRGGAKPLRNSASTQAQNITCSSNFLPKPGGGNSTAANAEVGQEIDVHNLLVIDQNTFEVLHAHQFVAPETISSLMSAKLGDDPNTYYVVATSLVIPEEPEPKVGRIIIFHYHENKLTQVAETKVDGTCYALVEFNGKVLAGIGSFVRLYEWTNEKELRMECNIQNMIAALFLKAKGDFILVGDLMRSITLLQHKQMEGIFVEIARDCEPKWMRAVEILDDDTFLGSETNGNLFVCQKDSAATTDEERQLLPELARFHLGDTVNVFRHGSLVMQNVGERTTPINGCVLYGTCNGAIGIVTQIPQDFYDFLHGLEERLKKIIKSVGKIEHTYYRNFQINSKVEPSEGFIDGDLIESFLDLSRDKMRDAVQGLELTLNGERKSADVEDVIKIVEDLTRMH

Key:
Myc-Wts (Drosophila) = biological target: T1, Myc-Wts (Drosophila) (UniProt Q9VA38); test: co-IP; S2 cells cotransfected with two differently tagged constructs; IP by one tag, western blot (Fig 4C, 4D, 4E, S4E)
T1 sequence: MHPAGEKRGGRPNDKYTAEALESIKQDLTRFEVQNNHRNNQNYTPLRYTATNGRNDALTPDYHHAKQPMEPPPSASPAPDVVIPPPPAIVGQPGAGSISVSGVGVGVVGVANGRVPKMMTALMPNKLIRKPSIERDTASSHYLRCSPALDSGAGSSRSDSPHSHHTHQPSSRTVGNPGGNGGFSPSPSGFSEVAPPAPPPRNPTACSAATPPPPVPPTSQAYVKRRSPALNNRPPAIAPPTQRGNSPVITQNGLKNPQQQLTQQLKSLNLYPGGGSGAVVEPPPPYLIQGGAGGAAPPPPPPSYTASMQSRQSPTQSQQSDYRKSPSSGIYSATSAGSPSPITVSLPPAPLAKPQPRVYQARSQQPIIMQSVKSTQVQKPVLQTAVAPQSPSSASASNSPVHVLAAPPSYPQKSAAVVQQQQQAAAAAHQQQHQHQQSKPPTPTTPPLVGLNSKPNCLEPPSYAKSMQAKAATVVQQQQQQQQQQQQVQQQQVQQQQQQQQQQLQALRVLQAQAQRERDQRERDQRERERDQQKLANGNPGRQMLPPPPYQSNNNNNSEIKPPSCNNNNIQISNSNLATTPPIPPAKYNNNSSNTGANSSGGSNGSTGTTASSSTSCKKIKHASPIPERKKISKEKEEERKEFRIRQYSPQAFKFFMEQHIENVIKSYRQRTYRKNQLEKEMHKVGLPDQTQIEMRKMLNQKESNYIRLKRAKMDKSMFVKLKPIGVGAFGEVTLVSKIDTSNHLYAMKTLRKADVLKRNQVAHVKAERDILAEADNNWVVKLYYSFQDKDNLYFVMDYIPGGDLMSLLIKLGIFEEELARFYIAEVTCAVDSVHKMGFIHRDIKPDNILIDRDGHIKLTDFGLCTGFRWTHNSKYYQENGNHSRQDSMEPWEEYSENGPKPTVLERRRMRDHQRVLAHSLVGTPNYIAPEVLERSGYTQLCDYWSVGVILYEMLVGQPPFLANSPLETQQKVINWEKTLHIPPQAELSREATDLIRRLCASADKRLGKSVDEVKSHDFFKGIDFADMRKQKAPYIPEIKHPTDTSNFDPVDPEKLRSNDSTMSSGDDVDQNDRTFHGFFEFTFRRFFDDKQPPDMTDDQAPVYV

[1] = biological target: Venus-Mahj (Drosophila melanogaster) (UniProt Q9W2F2); test: co-IP; S2 cells cotransfected with Flag-Cul4, Myc-DDB1 and Venus-Mahj; IP of Flag, Myc or GFP (Venus), western blot; lanes with and without overexpressed Myc-DDB1
Flag-Wts^FL (Drosophila) = biological target: T2, Flag-Wts^FL (Drosophila) (UniProt Q9VA38); test: co-IP; S2 cells cotransfected with two differently tagged constructs; IP by one tag, western blot (Fig 4C, 4D, 4E, S4E)
T2 sequence: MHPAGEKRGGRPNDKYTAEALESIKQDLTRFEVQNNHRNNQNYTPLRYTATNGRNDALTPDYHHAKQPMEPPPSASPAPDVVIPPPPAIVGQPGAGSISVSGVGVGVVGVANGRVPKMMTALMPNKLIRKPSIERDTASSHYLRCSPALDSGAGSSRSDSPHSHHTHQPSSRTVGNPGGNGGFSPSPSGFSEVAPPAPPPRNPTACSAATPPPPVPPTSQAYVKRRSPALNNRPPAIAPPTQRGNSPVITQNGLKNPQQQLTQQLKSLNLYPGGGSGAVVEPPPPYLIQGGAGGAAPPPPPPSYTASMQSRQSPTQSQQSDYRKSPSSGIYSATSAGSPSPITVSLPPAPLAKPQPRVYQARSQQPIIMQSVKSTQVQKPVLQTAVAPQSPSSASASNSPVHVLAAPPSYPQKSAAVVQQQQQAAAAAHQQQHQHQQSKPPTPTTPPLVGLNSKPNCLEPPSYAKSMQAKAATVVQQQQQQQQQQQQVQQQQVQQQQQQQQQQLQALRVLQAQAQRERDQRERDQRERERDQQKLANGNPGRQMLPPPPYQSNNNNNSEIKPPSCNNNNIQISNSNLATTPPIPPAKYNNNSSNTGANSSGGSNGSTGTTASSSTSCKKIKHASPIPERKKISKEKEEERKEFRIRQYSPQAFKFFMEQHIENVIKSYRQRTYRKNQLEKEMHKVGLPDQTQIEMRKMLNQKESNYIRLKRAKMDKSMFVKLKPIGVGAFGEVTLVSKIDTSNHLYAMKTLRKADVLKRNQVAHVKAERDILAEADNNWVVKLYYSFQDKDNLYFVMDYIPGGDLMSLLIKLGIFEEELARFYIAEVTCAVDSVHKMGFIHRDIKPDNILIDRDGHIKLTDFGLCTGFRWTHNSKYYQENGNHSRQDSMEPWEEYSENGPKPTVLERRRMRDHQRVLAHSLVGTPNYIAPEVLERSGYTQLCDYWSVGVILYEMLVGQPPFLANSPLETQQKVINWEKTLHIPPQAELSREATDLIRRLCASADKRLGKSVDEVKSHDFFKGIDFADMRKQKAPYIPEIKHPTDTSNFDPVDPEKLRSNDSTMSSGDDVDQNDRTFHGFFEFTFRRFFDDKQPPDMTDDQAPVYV

[2] = biological target: Venus-DDB1 (Drosophila melanogaster) (UniProt Q9XYZ5); test: as above
[3] = biological target: Myc-DDB1 (Drosophila melanogaster) (UniProt Q9XYZ5); test: co-IP; S2 cells cotransfected with Flag-Cul4, Myc-DDB1 and Venus-Mahj; IP of Flag, Myc or GFP (Venus), western blot; lanes with and without overexpressed Myc-DDB1
[4] = biological target: Myc-Mahj^FL (Drosophila melanogaster) (UniProt Q9W2F2); test: co-IP; S2 cells cotransfected with two differently tagged constructs; IP by one tag, western blot (Fig 4C, 4D, 4E, S4E)
[5] = biological target: Venus-DDB1 (Drosophila melanogaster) (UniProt Q9XYZ5); test: co-IP; S2 cells expressing Venus-DDB1, Myc-Wts and HA-Mahj^C-term; IP of Venus-DDB1, western blot

Flag-Mahj^FL (from UniProt Q9W2F2 1-1544)
binding (Myc-Wts (Drosophila)): binds

Flag-Mahj^R1120/1123E (from UniProt Q9W2F2 1-1544)
binding (Myc-Wts (Drosophila)): binds

Flag-Mahj^R1307/R1343A (from UniProt Q9W2F2 1-1544)
binding (Myc-Wts (Drosophila)): binds

Myc-DDB1 (from UniProt Q9XYZ5 1-1140)
binding [1]: binds

Myc-Mahj^FL (from UniProt Q9W2F2 1-1544)
binding (Flag-Wts^FL (Drosophila)): binds | binding [2]: binds

Venus-Mahj (from UniProt Q9W2F2 1-1544)
binding [3]: binds

B1: Flag-Wts^FL (protein, UniProt Q9VA38 1-1105)
chain: MHPAGEKRGGRPNDKYTAEALESIKQDLTRFEVQNNHRNNQNYTPLRYTATNGRNDALTPDYHHAKQPMEPPPSASPAPDVVIPPPPAIVGQPGAGSISVSGVGVGVVGVANGRVPKMMTALMPNKLIRKPSIERDTASSHYLRCSPALDSGAGSSRSDSPHSHHTHQPSSRTVGNPGGNGGFSPSPSGFSEVAPPAPPPRNPTACSAATPPPPVPPTSQAYVKRRSPALNNRPPAIAPPTQRGNSPVITQNGLKNPQQQLTQQLKSLNLYPGGGSGAVVEPPPPYLIQGGAGGAAPPPPPPSYTASMQSRQSPTQSQQSDYRKSPSSGIYSATSAGSPSPITVSLPPAPLAKPQPRVYQARSQQPIIMQSVKSTQVQKPVLQTAVAPQSPSSASASNSPVHVLAAPPSYPQKSAAVVQQQQQAAAAAHQQQHQHQQSKPPTPTTPPLVGLNSKPNCLEPPSYAKSMQAKAATVVQQQQQQQQQQQQVQQQQVQQQQQQQQQQLQALRVLQAQAQRERDQRERDQRERERDQQKLANGNPGRQMLPPPPYQSNNNNNSEIKPPSCNNNNIQISNSNLATTPPIPPAKYNNNSSNTGANSSGGSNGSTGTTASSSTSCKKIKHASPIPERKKISKEKEEERKEFRIRQYSPQAFKFFMEQHIENVIKSYRQRTYRKNQLEKEMHKVGLPDQTQIEMRKMLNQKESNYIRLKRAKMDKSMFVKLKPIGVGAFGEVTLVSKIDTSNHLYAMKTLRKADVLKRNQVAHVKAERDILAEADNNWVVKLYYSFQDKDNLYFVMDYIPGGDLMSLLIKLGIFEEELARFYIAEVTCAVDSVHKMGFIHRDIKPDNILIDRDGHIKLTDFGLCTGFRWTHNSKYYQENGNHSRQDSMEPWEEYSENGPKPTVLERRRMRDHQRVLAHSLVGTPNYIAPEVLERSGYTQLCDYWSVGVILYEMLVGQPPFLANSPLETQQKVINWEKTLHIPPQAELSREATDLIRRLCASADKRLGKSVDEVKSHDFFKGIDFADMRKQKAPYIPEIKHPTDTSNFDPVDPEKLRSNDSTMSSGDDVDQNDRTFHGFFEFTFRRFFDDKQPPDMTDDQAPVYV
binding [4]: binds

B2: Flag-Mahj^C-term (domain or fragment, UniProt Q9W2F2 1096-1544)
chain: LYEPHKCPDPKPSRLLSSNYNLTSRHARTQAGFNTSRFDRRYVHTHFSPWRSIRSADYEDLEFTCCDLAGKYIIVGTQQGDGRVFNMNDGVEQFFSNCHNFSVDAIKANRAGDLVITSSFWRTPTSILWSIADDEFKLKLRLPDVTYCEFSQTVQDRLLGTQNECATLFDINTGSKVASFTPTIPNLYTKNRATLCRTDELILSDGVLWDVRSGKEIHKFDKFNQCISGVFHPNCLEIIANTEVWDLRTFHLLQTVPVLDQRNCTFSPMHVIYGASLGADRDHDMETTTYDTSFNVLDAYDYSSIATIDVKRNINDLSVSANGSLIAVVEDYSGYESKQETYVKIYAVGVKKSERSEEEDDEEVPESDEDGSDTGSENTFAIGQNLLGFPLLRNLHGSDNDDEDLDEDDDDGEPLDSDDDSDDDDGSDNGDDDGDFDVLEYFDRSSSDD
binding (Myc-Wts (Drosophila)): binds

B3: Flag-Mahj^HLH+WD40 (domain or fragment, UniProt Q9W2F2 1096-1447)
chain: LYEPHKCPDPKPSRLLSSNYNLTSRHARTQAGFNTSRFDRRYVHTHFSPWRSIRSADYEDLEFTCCDLAGKYIIVGTQQGDGRVFNMNDGVEQFFSNCHNFSVDAIKANRAGDLVITSSFWRTPTSILWSIADDEFKLKLRLPDVTYCEFSQTVQDRLLGTQNECATLFDINTGSKVASFTPTIPNLYTKNRATLCRTDELILSDGVLWDVRSGKEIHKFDKFNQCISGVFHPNCLEIIANTEVWDLRTFHLLQTVPVLDQRNCTFSPMHVIYGASLGADRDHDMETTTYDTSFNVLDAYDYSSIATIDVKRNINDLSVSANGSLIAVVEDYSGYESKQETYVKIYAVGVKK
binding (Myc-Wts (Drosophila)): binds

B4: Flag-Wts^Kinase (domain or fragment, UniProt Q9VA38 719-1020)
chain: FVKLKPIGVGAFGEVTLVSKIDTSNHLYAMKTLRKADVLKRNQVAHVKAERDILAEADNNWVVKLYYSFQDKDNLYFVMDYIPGGDLMSLLIKLGIFEEELARFYIAEVTCAVDSVHKMGFIHRDIKPDNILIDRDGHIKLTDFGLCTGFRWTHNSKYYQENGNHSRQDSMEPWEEYSENGPKPTVLERRRMRDHQRVLAHSLVGTPNYIAPEVLERSGYTQLCDYWSVGVILYEMLVGQPPFLANSPLETQQKVINWEKTLHIPPQAELSREATDLIRRLCASADKRLGKSVDEVKSHDFF
binding [4]: binds

B5: HA-Mahj^C-term (domain or fragment, UniProt Q9W2F2 1096-1544)
chain: LYEPHKCPDPKPSRLLSSNYNLTSRHARTQAGFNTSRFDRRYVHTHFSPWRSIRSADYEDLEFTCCDLAGKYIIVGTQQGDGRVFNMNDGVEQFFSNCHNFSVDAIKANRAGDLVITSSFWRTPTSILWSIADDEFKLKLRLPDVTYCEFSQTVQDRLLGTQNECATLFDINTGSKVASFTPTIPNLYTKNRATLCRTDELILSDGVLWDVRSGKEIHKFDKFNQCISGVFHPNCLEIIANTEVWDLRTFHLLQTVPVLDQRNCTFSPMHVIYGASLGADRDHDMETTTYDTSFNVLDAYDYSSIATIDVKRNINDLSVSANGSLIAVVEDYSGYESKQETYVKIYAVGVKKSERSEEEDDEEVPESDEDGSDTGSENTFAIGQNLLGFPLLRNLHGSDNDDEDLDEDDDDGEPLDSDDDSDDDDGSDNGDDDGDFDVLEYFDRSSSDD
binding [5]: binds

B6: Myc-Mahj^C-term (domain or fragment, UniProt Q9W2F2 1096-1544)
chain: LYEPHKCPDPKPSRLLSSNYNLTSRHARTQAGFNTSRFDRRYVHTHFSPWRSIRSADYEDLEFTCCDLAGKYIIVGTQQGDGRVFNMNDGVEQFFSNCHNFSVDAIKANRAGDLVITSSFWRTPTSILWSIADDEFKLKLRLPDVTYCEFSQTVQDRLLGTQNECATLFDINTGSKVASFTPTIPNLYTKNRATLCRTDELILSDGVLWDVRSGKEIHKFDKFNQCISGVFHPNCLEIIANTEVWDLRTFHLLQTVPVLDQRNCTFSPMHVIYGASLGADRDHDMETTTYDTSFNVLDAYDYSSIATIDVKRNINDLSVSANGSLIAVVEDYSGYESKQETYVKIYAVGVKKSERSEEEDDEEVPESDEDGSDTGSENTFAIGQNLLGFPLLRNLHGSDNDDEDLDEDDDDGEPLDSDDDSDDDDGSDNGDDDGDFDVLEYFDRSSSDD
binding [2]: binds

B7: Myc-Mahj^HLH+WD40 (domain or fragment, UniProt Q9W2F2 1096-1447)
chain: LYEPHKCPDPKPSRLLSSNYNLTSRHARTQAGFNTSRFDRRYVHTHFSPWRSIRSADYEDLEFTCCDLAGKYIIVGTQQGDGRVFNMNDGVEQFFSNCHNFSVDAIKANRAGDLVITSSFWRTPTSILWSIADDEFKLKLRLPDVTYCEFSQTVQDRLLGTQNECATLFDINTGSKVASFTPTIPNLYTKNRATLCRTDELILSDGVLWDVRSGKEIHKFDKFNQCISGVFHPNCLEIIANTEVWDLRTFHLLQTVPVLDQRNCTFSPMHVIYGASLGADRDHDMETTTYDTSFNVLDAYDYSSIATIDVKRNINDLSVSANGSLIAVVEDYSGYESKQETYVKIYAVGVKK
binding [2]: binds
